Laboratory results reported in patent publication US20210400977A1, “META-DIAMIDE COMPOUNDS FOR CONTROLLING INVERTEBRATE PESTS” (FMC Corporation, priority 2018, published 2021).
Some entries share one result that the patent states for a list of compounds.

These compounds were tested on cotton melon aphid (Aphis gossypii (Glover)) (assay: Test F: control of cotton melon aphid through contact and/or systemic means). Details: sprayed at 50 ppm; assessed after 6 days.
Format: in vivo

| Compound | mortality |
| --- | --- |
| CCC(=O)NCc1cc(NC(=O)C2C(c3cc(F)c(F)c(F)c3)C2(Cl)Cl)ccc1Cl (stereo not drawn) [Compound 108] | at least 80% |

Same assay, conditions: sprayed at 250 ppm; assessed after 6 days

| Compound | mortality |
| --- | --- |
| CCC(=O)NCc1cc(N(C)C(=O)C2C(c3ccc(F)c(Cl)c3)C2(Cl)Cl)ccc1Cl (stereo not drawn) [Compound 149] | at least 80% |

These compounds were tested on fall armyworm (Spodoptera frugiperda (J. E. Smith)) (assay: Test B: control of fall armyworm, foliar spray on corn (maize) plant). Details: sprayed at 50 ppm, assessed after 6 days, value is the feeding damage limit.
Format: in vivo

| Compound | control efficacy (40% or less feeding damage and/or 100% mortality) [%] |
| --- | --- |
| COC(=O)CC(=O)NCc1cc(NC(=O)C2C(c3cc(Cl)cc(Cl)c3)C2(Cl)Cl)ccc1Cl (stereo not drawn) [Compound 109] | ≤ 40 |
| O=C(CC(F)(F)F)NCc1cc(NC(=O)C2C(c3cc(F)c(F)c(F)c3)C2(Cl)Cl)ccc1F (stereo not drawn) [Compound 106] | ≤ 40 |
| CCC(=O)NCc1cc(N(C)C(=O)C2C(c3ccc(F)c(Cl)c3)C2(Cl)Cl)ccc1Cl (stereo not drawn) [Compound 149] | ≤ 40 |
| O=C(Nc1ccc(Cl)c(CNC(=O)C(F)(F)F)c1)C1C(c2cc(F)cc(C(F)(F)F)c2)C1(Cl)Cl (stereo not drawn) [Compound 173] | ≤ 40 |
| CC(=O)NCc1cc(NC(=O)C2C(c3ccc(F)c(C(F)(F)F)c3)C2(Cl)Cl)ccc1Cl (stereo not drawn) [Compound 76] | ≤ 40 |
| CCC(=O)NCc1cc(NC(=O)C2C(c3ccc(F)c(C(F)(F)F)c3)C2(Cl)Cl)ccc1Cl (stereo not drawn) [Compound 38] | ≤ 40 |
| O=C(Nc1ccc(F)c(CNC(=O)C2(C(F)(F)F)CC2)c1F)C1C(c2ccc(F)c(C(F)(F)F)c2)C1(Cl)Cl (stereo not drawn) [Compound 102] | ≤ 40 |
| CC(=O)NCc1c(F)ccc(NC(=O)C2C(c3ccc(F)c(Cl)c3)C2(Cl)Cl)c1F (stereo not drawn) [Compound 166] | ≤ 40 |
| O=C(NCc1cc(NC(=O)C2C(c3ccc(F)c(Cl)c3)C2(Cl)Cl)ccc1Br)C1CC1 (stereo not drawn) [Compound 138] | ≤ 40 |

Same assay, conditions: sprayed at 250 ppm, assessed after 6 days, value is the feeding damage limit

| Compound | control efficacy (40% or less feeding damage and/or 100% mortality) [%] |
| --- | --- |
| CCC(=O)NCc1cc(N(C)C(=O)C2C(c3ccc(F)c(Cl)c3)C2(Cl)Cl)ccc1Cl (stereo not drawn) [Compound 149] | ≤ 40 |
| CCC(=O)NCc1cc(NC(=O)C2C(c3ccc(F)c(C(F)(F)F)c3)C2(Cl)Cl)ccc1Cl (stereo not drawn) [Compound 38] | ≤ 40 |
| O=C(NCc1cc(NC(=O)C2C(c3ccc(F)c(Cl)c3)C2(Cl)Cl)ccc1Br)C1CC1 (stereo not drawn) [Compound 138] | ≤ 40 |

These compounds were tested on Western Flower Thrips (Frankliniellla occidentalis (Pergande)) (assay: Test H: control of Western Flower Thrips through contact and/or systemic means). Details: sprayed at 50 ppm, assessed after 6 days, value is the plant damage limit.
Format: in vivo

| Compound | control efficacy (30% or less plant damage and/or 100% mortality) [%] |
| --- | --- |
| O=C(CC(F)(F)F)NCc1cc(NC(=O)C2C(c3cc(F)c(F)c(F)c3)C2(Cl)Cl)ccc1F (stereo not drawn) [Compound 106] | ≤ 30 |
| O=C(NCc1cc(NC(=O)C2C(c3ccc(F)c(Cl)c3)C2(Cl)Cl)ccc1Br)C1CC1 (stereo not drawn) [Compound 138] | ≤ 30 |

Same assay, conditions: sprayed at 250 ppm, assessed after 6 days, value is the plant damage limit

| Compound | control efficacy (30% or less plant damage and/or 100% mortality) [%] |
| --- | --- |
| COC(=O)CC(=O)NCc1cc(NC(=O)C2C(c3cc(Cl)cc(Cl)c3)C2(Cl)Cl)ccc1Cl (stereo not drawn) [Compound 109] | ≤ 30 |
| O=C(CC(F)(F)F)NCc1cc(NC(=O)C2C(c3cc(F)c(F)c(F)c3)C2(Cl)Cl)ccc1F (stereo not drawn) [Compound 106] | ≤ 30 |
| O=C(Nc1ccc(Cl)c(CNC(=O)C(F)(F)F)c1)C1C(c2cc(F)cc(C(F)(F)F)c2)C1(Cl)Cl (stereo not drawn) [Compound 173] | ≤ 30 |
| CC(=O)NCc1cc(NC(=O)C2C(c3ccc(F)c(C(F)(F)F)c3)C2(Cl)Cl)ccc1Cl (stereo not drawn) [Compound 76] | ≤ 30 |
| CCC(=O)NCc1cc(NC(=O)C2C(c3ccc(F)c(C(F)(F)F)c3)C2(Cl)Cl)ccc1Cl (stereo not drawn) [Compound 38] | ≤ 30 |
| O=C(Nc1ccc(F)c(CNC(=O)C2(C(F)(F)F)CC2)c1F)C1C(c2ccc(F)c(C(F)(F)F)c2)C1(Cl)Cl (stereo not drawn) [Compound 102] | ≤ 30 |
| CC(=O)NCc1c(F)ccc(NC(=O)C2C(c3ccc(F)c(Cl)c3)C2(Cl)Cl)c1F (stereo not drawn) [Compound 166] | ≤ 30 |
| O=C(NCc1cc(NC(=O)C2C(c3ccc(F)c(Cl)c3)C2(Cl)Cl)ccc1Br)C1CC1 (stereo not drawn) [Compound 138] | ≤ 30 |

Each compound was assayed on diamondback moth (Plutella xylostella (L.)) (assay: Test A: control of diamondback moth, foliar spray on mustard plant). Details: sprayed at 50 ppm, assessed after 6 days, value is the feeding damage limit.
Format: in vivo

| Compound | control efficacy (40% or less feeding damage and/or 100% mortality) [%] |
| --- | --- |
| CCC(=O)NCc1cc(NC(=O)C2C(c3cc(F)c(F)c(F)c3)C2(Cl)Cl)ccc1Cl (stereo not drawn) [Compound 108] | ≤ 40 |
| COC(=O)CC(=O)NCc1cc(NC(=O)C2C(c3cc(Cl)cc(Cl)c3)C2(Cl)Cl)ccc1Cl (stereo not drawn) [Compound 109] | ≤ 40 |
| O=C(CC(F)(F)F)NCc1cc(NC(=O)C2C(c3cc(F)c(F)c(F)c3)C2(Cl)Cl)ccc1F (stereo not drawn) [Compound 106] | ≤ 40 |
| CCC(=O)NCc1cc(N(C)C(=O)C2C(c3ccc(F)c(Cl)c3)C2(Cl)Cl)ccc1Cl (stereo not drawn) [Compound 149] | ≤ 40 |
| O=C(Nc1ccc(Cl)c(CNC(=O)C(F)(F)F)c1)C1C(c2cc(F)cc(C(F)(F)F)c2)C1(Cl)Cl (stereo not drawn) [Compound 173] | ≤ 40 |
| CC(=O)NCc1cc(NC(=O)C2C(c3ccc(F)c(C(F)(F)F)c3)C2(Cl)Cl)ccc1Cl (stereo not drawn) [Compound 76] | ≤ 40 |
| CCC(=O)NCc1cc(NC(=O)C2C(c3ccc(F)c(C(F)(F)F)c3)C2(Cl)Cl)ccc1Cl (stereo not drawn) [Compound 38] | ≤ 40 |
| O=C(Nc1ccc(F)c(CNC(=O)C2(C(F)(F)F)CC2)c1F)C1C(c2ccc(F)c(C(F)(F)F)c2)C1(Cl)Cl (stereo not drawn) [Compound 102] | ≤ 40 |
| CC(=O)NCc1c(F)ccc(NC(=O)C2C(c3ccc(F)c(Cl)c3)C2(Cl)Cl)c1F (stereo not drawn) [Compound 166] | ≤ 40 |
| O=C(NCc1cc(NC(=O)C2C(c3ccc(F)c(Cl)c3)C2(Cl)Cl)ccc1Br)C1CC1 (stereo not drawn) [Compound 138] | ≤ 40 |

Same assay, conditions: sprayed at 250 ppm, assessed after 6 days, value is the feeding damage limit

| Compound | control efficacy (40% or less feeding damage and/or 100% mortality) [%] |
| --- | --- |
| CCC(=O)NCc1cc(N(C)C(=O)C2C(c3ccc(F)c(Cl)c3)C2(Cl)Cl)ccc1Cl (stereo not drawn) [Compound 149] | ≤ 40 |
| CCC(=O)NCc1cc(NC(=O)C2C(c3ccc(F)c(C(F)(F)F)c3)C2(Cl)Cl)ccc1Cl (stereo not drawn) [Compound 38] | ≤ 40 |
| O=C(NCc1cc(NC(=O)C2C(c3ccc(F)c(Cl)c3)C2(Cl)Cl)ccc1Br)C1CC1 (stereo not drawn) [Compound 138] | ≤ 40 |

What follows are compounds tested on potato leafhopper (Empoasca fabae (Harris)) (assay: Test D: control of potato leafhopper through contact and/or systemic means). Details: sprayed at 50 ppm; assessed after 6 days.
Format: in vivo
Experimental: Test compounds were formulated using a solution containing 10% acetone, 90% water and 300 ppm Activator 90® non-ionic surfactant (Loveland Products, Loveland, Colo., USA). The formulated compounds were applied in 1 mL of liquid through an atomizer nozzle positioned 1.27 cm (0.5 inches) above the top of each test unit. Test compounds were sprayed at the rates indicated, and each test was replicated three times.
For evaluating control of potato leafhopper (Empoasca fabae (Harris)) through contact and/or systemic means, the test unit consisted of a small open container with a 5-6-day-old Soleil bean plant (primary leaves emerged) inside. White sand was added to the top of the soil, and one of the primary leaves was excised prior to application of the test compound.
Test compounds were formulated and sprayed at 250 and/or 50 ppm. After spraying of the formulated test compound, the test units were allowed to dry for 1 hour before they were post-infested with 5 potato leafhoppers (18-to-21-day-old adults). A black, screened cap was placed on the top of the test unit, and the test units were held for 6 days in a growth chamber at 20° C. and 70% relative humidity. Each test unit was then visually assessed for insect mortality.

| Compound | mortality |
| --- | --- |
| CCC(=O)NCc1cc(N(C)C(=O)C2C(c3ccc(F)c(Cl)c3)C2(Cl)Cl)ccc1Cl (stereo not drawn) [Compound 149] | at least 80% |

Same assay, conditions: sprayed at 250 ppm; assessed after 6 days

| Compound | mortality |
| --- | --- |
| CCC(=O)NCc1cc(N(C)C(=O)C2C(c3ccc(F)c(Cl)c3)C2(Cl)Cl)ccc1Cl (stereo not drawn) [Compound 149] | at least 80% |
